Reference: PMC4640659, “Antidepressant- and Anxiolytic-Like Effects of New Dual 5-HT1A and 5-HT7 Antagonists in Animal Models” (PLoS ONE, 2015)
“And” between values parts separate entries of the source, which are not always exact repeats. Identical values can stand only once. Counter-ions that a name gives are not always drawn.

Assays:
[1] = tested on: mice; experiment: Locomotor activity in mice (photoresistor actometers); assay type: in vivo; conditions: for Influence on locomotor activity, 1-min session / Influence on locomotor activity, 4-min session: all doses tested
[2] = tested on: rats; experiment: Exploratory activity in rats (EPM apparatus); assay type: in vivo; conditions: 5-min test
[3] = pCPA 200 mg/kg i.p. once daily for 3 days, Table 6
[4] = 1.25 mg/kg i.p. 30 min before test
[5] = 2.5 mg/kg i.p. 30 min before test
[6] = 1.25 mg/kg i.p. 30 min before test, Table 3
[7] = 2.5 mg/kg i.p. 30 min before test, Table 3
[8] = 2.5 mg/kg i.p. 30 min before test, Table 6, 2.5 mg/kg
[9] = 5 mg/kg i.p. 30 min before test, Table 3
[10] = 5 mg/kg i.p. 30 min before test
[11] = WAY-100635 0.1 mg/kg s.c., Table 6, 0.1 mg/kg

N[C@@H](Cc1ccc(Cl)cc1)C(=O)O (racemic) [pCPA, p-Chlorophenylalanine, reference compound]
Number of crossings, 1 min [1, 3]: 88 and 99 | Number of crossings, 4 min [1, 3]: 408 and 370

CN1C(=O)CN=C(c2ccccc2)c2cc(Cl)ccc21 [Diazepam, diazepam, reference compound]
Total arm entries [2, 4]: 15.8 | Total distance travelled [2, 4]: 29.1 m | Total arm entries [2, 5]: 17.0 | Total distance travelled [2, 5]: 31.9 m

COc1ccccc1N1CCN(CCOCCOc2c(C)cccc2C)CC1 [HBK-14, 1-{2-[2-(2,6-dimethlphenoxy)ethoxy]ethyl}-4-(2-methoxyphenyl)piperazynine hydrochloride]
Number of crossings, 1 min [1, 6]: 93 | Number of crossings, 4 min [1, 6]: 488 | Number of crossings ([1]; 1.25 mg/kg i.p. 30 min before test, Table 5, 1.25 mg/kg): 356 and 511 | Number of crossings, 1 min [1, 7]: 95 | Number of crossings, 4 min [1, 7]: 542 | Number of crossings, 1 min [1, 8]: 99 and 105 | Number of crossings, 4 min [1, 8]: 363 and 344 | Number of crossings, 1 min [1, 9]: 98 | Number of crossings, 4 min [1, 9]: 424 | Influence on locomotor activity, 1-min session [1]: Neither HBK-14 nor HBK-15 influenced locomotor activity | Influence on locomotor activity, 4-min session [1]: Neither HBK-14 nor HBK-15 influenced locomotor activity | Total arm entries [2, 4]: 23.0 | Total distance travelled [2, 4]: 36.1 m | Total arm entries [2, 5]: 20.7 | Total distance travelled [2, 5]: 30.0 m | Total arm entries [2, 10]: 34.8 | Total distance travelled [2, 10]: 39.1 m

COc1ccccc1N1CCN(CCOCCOc2c(C)cccc2Cl)CC1 [HBK-15, 2-[2-(2-chloro-6-methylphenoxy)ethoxy]ethyl-4-(2-methoxyphenyl)piperazynine dihydrochloride]
Number of crossings, 4 min ([1]; 0.625 mg/kg i.p. 30 min before test, Table 3): 531 | Number of crossings ([1]; 0.625 mg/kg i.p. 30 min before test, Table 5, 0.625 mg/kg): 399 and 349 and 477 | Number of crossings, 1 min [1, 6]: 108 | Number of crossings, 4 min [1, 6]: 459 | Number of crossings, 4 min ([1]; 1.25 mg/kg i.p. 30 min before test, Table 6): 360 | Number of crossings, 1 min [1, 7]: 98 | Number of crossings, 4 min [1, 7]: 411 | Number of crossings, 4 min ([1]; 2.5 mg/kg i.p. 30 min before test, Table 6): 356 | Number of crossings, 1 min [1, 8]: 99 and 93 | Number of crossings, 1 min [1, 9]: 103 | Number of crossings, 4 min [1, 9]: 442 | Influence on locomotor activity, 1-min session [1]: Neither HBK-14 nor HBK-15 influenced locomotor activity | Influence on locomotor activity, 4-min session [1]: Neither HBK-14 nor HBK-15 influenced locomotor activity | Total arm entries [2, 5]: 18.2 | Total distance travelled [2, 5]: 36.3 m | Total arm entries [2, 10]: 16.8 | Total distance travelled [2, 10]: 30.9 m

COc1ccccc1N1CCN(CCN(C(=O)C2CCCCC2)c2ccccn2)CC1.Cl.Cl.Cl [WAY-100635, N-{2-[4-(2-methoxyphenyl)-1-piperazinyl]ethyl}-N-(2-pyridinyl)cyclohexanecarboxamide trihydrochloride, reference compound]
Number of crossings, 1 min [1, 11]: 95 and 107 | Number of crossings, 4 min [1, 11]: 402 and 454

CC(NC(C)(C)C)C(=O)c1cccc(Cl)c1 (stereo not drawn) [bupropion, reference compound]
Number of crossings ([1]; 2.5 mg/kg i.p. 30 min before test, Table 5, 2.5 mg/kg): 418 and 409

CNCCC(Oc1ccc(C(F)(F)F)cc1)c1ccccc1 (stereo not drawn) [fluoxetine, reference compound]
Number of crossings ([1]; 10 mg/kg i.p. 30 min before test, Table 5, 10 mg/kg): 488 and 393

CCOc1ccccc1OC(c1ccccc1)C1CNCCO1 (stereo not drawn) [reboxetine, reference compound]
Number of crossings ([1]; 5 mg/kg i.p. 30 min before test, Table 5, 5 mg/kg): 393 and 366
